# Assay: Sugammadex sodium protein residue detection test (Coomassie Brilliant Blue G-250 method)
# Settings: crude spiked with 0.1% cyclodextrin glucosyltransferase before recrystallization; 1 g sample in 10 ml water, 595 nm
# Procedure: Sugammadex Sodium Protein Residue Detection Test (Coomassie Brilliant Blue G-250 Method): 0, 6, 12, 24, 36, 48 and 60 μl of standard protein solution were respectively added to test tubes, 3 ml of Coomassie Brilliant Blue G-250 staining solution was added, uniform mixing was performed, heat preservation was performed at room temperature for 15 min, colorimetric determination was performed at wavelength of 595 nm. and a standard curve was drawn. 1 g of sugammadex sodium sample to be tested was taken and dissolved in 8 ml of water for injection, heating was performed for dissolution, the pH value was regulated, water for injection was added to fix the volume to 10 ml, the above liquid was enabled to pass through a 0.22 μm filter membrane, and then a sample solution to be tested was prepared. 60 μl of the solution was taken and the above determination was performed to obtain the concentration thereof.
row,SMILES,Content of protein (protein residue)
1,"O=C([O-])CCSC[C@H]1O[C@@H]2OC3[C@@H](CSCCC(=O)[O-])O[C@H](OC4[C@@H](CSCCC(=O)[O-])O[C@H](OC5[C@@H](CSCCC(=O)[O-])O[C@H](OC6[C@@H](CSCCC(=O)[O-])O[C@H](OC7[C@@H](CSCCC(=O)[O-])O[C@H](OC8[C@@H](CSCCC(=O)[O-])O[C@H](OC9[C@@H](CSCCC(=O)[O-])O[C@H](OC1[C@H](O)[C@H]2O)[C@H](O)[C@H]9O)[C@H](O)[C@H]8O)[C@H](O)[C@H]7O)[C@H](O)[C@H]6O)[C@H](O)[C@H]5O)[C@H](O)[C@H]4O)[C@H](O)[C@H]3O.[Na+].[Na+].[Na+].[Na+].[Na+].[Na+].[Na+].[Na+] [Comparative Embodiment 2, sugammadex sodium]",0.06 µg/mL
2,"O=C([O-])CCSC[C@H]1O[C@@H]2OC3[C@@H](CSCCC(=O)[O-])O[C@H](OC4[C@@H](CSCCC(=O)[O-])O[C@H](OC5[C@@H](CSCCC(=O)[O-])O[C@H](OC6[C@@H](CSCCC(=O)[O-])O[C@H](OC7[C@@H](CSCCC(=O)[O-])O[C@H](OC8[C@@H](CSCCC(=O)[O-])O[C@H](OC9[C@@H](CSCCC(=O)[O-])O[C@H](OC1[C@H](O)[C@H]2O)[C@H](O)[C@H]9O)[C@H](O)[C@H]8O)[C@H](O)[C@H]7O)[C@H](O)[C@H]6O)[C@H](O)[C@H]5O)[C@H](O)[C@H]4O)[C@H](O)[C@H]3O.[Na+].[Na+].[Na+].[Na+].[Na+].[Na+].[Na+].[Na+] [Embodiment 11, sugammadex sodium]",no protein residue was detected

# From patent US11306158B1, “Method for preparing high-purity sugammadex sodium” (HEFEI BOSIKC PHARMTECH CO., LTD., priority 2019, dated 2022)
